These are yes or no findings as the source states them, for the method shown. In cells and extracts the contact can be indirect. Some binding calls cover weakened binding; strength is not graded here. Where a sequence is shown, tags or fusion partners need not be part of it.

Data on one molecule can be found in publication PMC4081717.

For one experiment, the target named is T1, Flag-Kv4.2-GFP (mouse) (UniProt Q9Z0V2).
T1 sequence: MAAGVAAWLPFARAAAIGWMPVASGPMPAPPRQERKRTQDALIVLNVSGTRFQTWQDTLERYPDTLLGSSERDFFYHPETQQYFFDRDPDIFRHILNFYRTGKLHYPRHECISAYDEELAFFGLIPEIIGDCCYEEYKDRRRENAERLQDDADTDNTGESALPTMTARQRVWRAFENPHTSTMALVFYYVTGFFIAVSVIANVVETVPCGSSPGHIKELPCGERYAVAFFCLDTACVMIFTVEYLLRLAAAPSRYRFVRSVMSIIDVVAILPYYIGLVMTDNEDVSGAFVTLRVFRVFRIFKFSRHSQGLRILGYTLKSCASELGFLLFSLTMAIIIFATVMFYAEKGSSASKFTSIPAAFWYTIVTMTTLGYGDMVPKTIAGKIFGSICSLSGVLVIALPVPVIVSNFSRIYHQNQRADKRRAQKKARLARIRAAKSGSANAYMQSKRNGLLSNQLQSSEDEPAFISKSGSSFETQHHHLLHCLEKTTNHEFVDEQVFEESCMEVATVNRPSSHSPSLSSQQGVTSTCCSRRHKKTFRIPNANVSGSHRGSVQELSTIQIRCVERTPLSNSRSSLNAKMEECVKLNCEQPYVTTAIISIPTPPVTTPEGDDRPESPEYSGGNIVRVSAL
The experiment is described as follows: co-IP; lysate of HEK293 cells expressing Kv4.2 (Flag-Kv4.2-GFP) and KChIP2; mild lysis buffer (50 mM Tris-Cl pH 7.4, 150 mM NaCl, 1 mM EDTA, 1% NP-40, 0.5% sodium deoxycholate); anti-Kv4.2 antibody, protein A/G agarose, 4°C; blot for KChIP2; untreated, or MWCNTs 20 µg/ml for 6 h in the culture medium or in the lysate (KChIP2/Kv4.2 ratio then (66.0±13.6)% and (49.4±18.0)% of control).

The target of experiment [1] is T2, human Kv4.3 tagged with Flag in the C-terminal (human) (UniProt Q9UK17).
T2 sequence: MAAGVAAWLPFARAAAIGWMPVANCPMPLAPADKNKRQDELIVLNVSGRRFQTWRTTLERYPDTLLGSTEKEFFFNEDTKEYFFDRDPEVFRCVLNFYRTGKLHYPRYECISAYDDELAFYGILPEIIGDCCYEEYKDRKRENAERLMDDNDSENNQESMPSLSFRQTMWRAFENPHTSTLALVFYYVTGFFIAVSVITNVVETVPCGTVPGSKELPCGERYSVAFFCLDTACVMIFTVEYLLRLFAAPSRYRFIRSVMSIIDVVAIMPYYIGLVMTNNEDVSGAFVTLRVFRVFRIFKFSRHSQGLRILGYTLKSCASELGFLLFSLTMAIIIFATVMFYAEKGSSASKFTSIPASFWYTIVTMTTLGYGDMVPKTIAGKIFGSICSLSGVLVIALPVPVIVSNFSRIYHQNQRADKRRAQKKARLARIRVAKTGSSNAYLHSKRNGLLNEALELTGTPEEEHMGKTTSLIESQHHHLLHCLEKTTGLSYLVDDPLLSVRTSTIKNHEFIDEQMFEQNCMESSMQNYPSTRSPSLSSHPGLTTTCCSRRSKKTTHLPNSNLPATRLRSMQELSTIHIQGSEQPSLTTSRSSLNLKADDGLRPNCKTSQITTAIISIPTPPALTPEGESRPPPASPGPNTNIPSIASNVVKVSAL
The experiment is described as follows: co-IP; lysate of HEK293 cells expressing Kv4.3 (C-terminal Flag) and KChIP2; anti-Flag as immunoprecipitating antibody; blot for KChIP2; untreated or treated with MWCNTs.

B1: potassium channel interacting protein 2 (KChIP2) (protein, UniProt Q9JJ69 1-270)
chain: MRGQGRKESLSDSRDLDGSYDQLTGHPPGPSKKALKQRFLKLLPCCGPQALPSVSETLAAPASLRPHRPRPLDPDSVEDEFELSTVCHRPEGLEQLQEQTKFTRRELQVLYRGFKNECPSGIVNEENFKQIYSQFFPQGDSSNYATFLFNAFDTNHDGSVSFEDFVAGLSVILRGTIDDRLNWAFNLYDLNKDGCITKEEMLDIMKSIYDMMGKYTYPALREEAPREHVESFFQKMDRNKDGVVTIEEFIESCQQDENIMRSMQLFDNVI
Take B1: the binding result (in the experiment with Flag-Kv4.2-GFP (mouse); in experiment [1]) was “binds” in each case.
